Laboratory results: PubChem BioAssay AID624297 (National Center for Advancing Translational Sciences (NCATS), 2012)
Where “and” joins values, the source holds several entries; their conditions need not be identical. Equal values may be shown once. Hit rate of the full screen: of about 340,000 compounds, about 6,200 (1.8%) were called active. Inconclusive results, whose numbers are uncertain, are shown with a selection of clear calls. Calls follow the shape of the dose curve; as a rule, active = well fitted activation curve with a large enough effect; inconclusive = small, poorly fitted or top-dose-only effect; inactive = no such curve, though single readings can be large or run the other way. Potencies beside an inconclusive call are fits to weak or partial responses and may not hold up.

Assay: A quantitative high throughput screen for small molecules that induce DNA re-replication in SW480 colon adenocarcinoma cells. Also: nearly all actives have a fitted effect of over 55% in size. As to re-replication activation: % of control where 0% means no effect.
Details: Hoechst DNA content imaging, 48 h; re-replication activation: at 46.1 µM (top of the series) unless noted
Summary of the method: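 Treated cells incubate 48 hr (37 C, 5% CO2), are stained 40 min with Hoechst, and nuclear fluorescence is enumerated; a rise in nuclei with high DNA signal marks re-replication.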
Potency is read from the fitted curve at half-maximal effect.

Q: For `Cc1cc(C(=O)NN=C2C3CC4CC(C3)CC2C4)c2ccccc2n1`, which Potency is on record?
A: inconclusive: 23.1 µM [activator, single point]

Q: With `COc1cc(CNCCc2ccc(S(N)(=O)=O)cc2)ccc1OCC(=O)NC1CCCCC1` as the compound, how does the Potency read?
A: inactive

Q: Which Potency does the source give for `O=C(OCCN=C1NS(=O)(=O)c2ccccc21)c1ccncc1` here?
A: inactive

Q: Which Potency does the source give for `O=C(CSc1n[nH]c(-c2ccncc2)n1)Nc1ccccc1C(F)(F)F` here?
A: inactive

Q: Which Potency does the source give for `Cc1nsc(N)c1C(=O)O` here?
A: inactive

Q: With `Cc1onc(-c2c(Cl)cccc2Cl)c1COC(=O)c1ccc([N+](=O)[O-])cc1` as the compound, how does the Potency read?
A: inconclusive: 29.1 µM [activator, partial curve, poor fit]

Q: Which Potency does the source give for `CC(=O)c1c(C)oc2ccc(N(C(C)=O)S(=O)(=O)c3ccc(Cl)c([N+](=O)[O-])c3)cc12` here?
A: inconclusive: 29.1 µM [activator, single point]

Q: With `O=C(OCC#CCSc1nnc(-c2ccncc2)o1)c1sc2ccccc2c1Cl` as the compound, how does the Potency read?
A: inconclusive: 29.1 µM [activator, single point]

Q: Which Potency does the source give for `O=c1[nH]c(-c2ccccn2)nc2ccccc12` here?
A: inconclusive: 23.1 µM [activator, single point]

Q: With `Cc1onc(-c2ccccc2Cl)c1C(=O)Oc1cccc2cccnc12` as the compound, how does the Potency read?
A: inconclusive: 29.1 µM [activator, partial curve, poor fit]

Q: For `Cc1nc2ccc(NS(=O)(=O)c3ccc4c(c3)OCCO4)cc2s1`, which Potency is on record?
A: inactive

Q: With `CCOC(=O)c1c(C)[nH]c(C(=O)COC(=O)c2cnccn2)c1C` as the compound, how does the Potency read?
A: inactive

Q: With `O=[N+]([O-])c1ccc(OCc2n[nH]c(=S)n2-c2ccccc2)cc1` as the compound, how does the Potency read?
A: inactive

Q: For `CC1=C(C(=O)OCCOc2ccccc2)C(c2ccsc2)NC(=O)N1C` (stereo unspecified), which Potency is on record?
A: inactive

Q: For `O=S(=O)(c1ccc2nc(-c3ccco3)c(-c3ccco3)nc2c1)N1CCOCC1`, which Potency is on record?
A: inconclusive: 29.1 µM [activator, single point]

Q: Which Potency does the source give for `Cc1ccc(S(=O)(=O)N(C)c2c(C)ccc(S(=O)(=O)N3CCN(C)CC3)c2C)cc1` here?
A: inconclusive: 6.51 µM [activator, partial curve, poor fit]

Q: Which Potency does the source give for `CC(=O)Nc1ccc(SCC(=O)c2cc(C)n(Cc3cccs3)c2C)cc1` here?
A: inactive

Q: Which Potency does the source give for `NS(=O)(=O)c1ccc(-c2ccc(/C=N/NC(=O)c3ccccc3O)o2)cc1` here?
A: inconclusive: 29.1 µM [activator, single point]

Q: Which re-replication activation does the source give for `Cc1noc(C)c1C(=O)Nc1nnc(-c2ccccc2)s1` here?
A: inactive: -3.5% [at 9.22 µM]

Q: Which Potency does the source give for `CN(C)CCC(=O)c1cccc(Br)c1` here?
A: inconclusive: 29.1 µM [activator, single point]

Q: Which Potency does the source give for `N=c1oc2ccc3ccccc3c2cc1C(N)=S` here?
A: inconclusive: 20.6 µM [activator, partial curve, poor fit]

Q: Which Potency does the source give for `O=C(c1cccs1)c1ccccc1Cc1cccs1` here?
A: inactive

Q: With `COC(=O)COc1cccc2c(=O)n(CC(=O)NCc3ccc(F)cc3)ccc12` as the compound, how does the Potency read?
A: active: 5.8 µM

Q: With `COc1ccc(C(=O)Nc2ccc(NC(=O)c3ccccn3)cn2)cc1` as the compound, how does the Potency read?
A: inactive

Q: With `O=C(Nc1nnc(S(=O)(=O)N2CCOCC2)s1)c1ccccc1F` as the compound, how does the re-replication activation read?
A: inconclusive: 18.6% [activator]

Q: For `COC1CCCCC1Nc1cc(C)ccc1C` (stereo unspecified), which Potency is on record?
A: inconclusive: 29.1 µM [activator, single point]

Q: Which Potency does the source give for `C=COCCn1c(-c2nonc2N)nc2ccccc21` here?
A: inconclusive: 18.4 µM [activator, partial curve, poor fit]

Q: Which Potency does the source give for `CCOC(=O)c1sc(-c2ccccc2)cc1NC(=O)Nc1ccccc1` here?
A: inconclusive: 23.1 µM [activator, single point]

Q: Which Potency does the source give for `CC1Oc2ccccc2C=C1/C=C1/SC(N2CCOCC2)=NC1=O` (stereo unspecified) here?
A: inconclusive: 32.6 µM [activator, partial curve, poor fit]

Q: For `O=C(CN1CCN(CCC(=O)Nc2ccccc2F)CC1)Nc1ccc(F)cc1`, which Potency is on record?
A: inactive

Q: With `COc1cc(/C=c2\sc3n(c2=O)CCCN=3)ccc1O` as the compound, how does the Potency read?
A: inconclusive: 35.5 µM [activator, single point]

Q: Which Potency does the source give for `CCC(=O)N1CCN(c2ccc(Cl)cc2NC(=O)c2ccc([N+](=O)[O-])o2)CC1` here?
A: active: 9.2 µM

Q: With `COc1ccccc1C1=NOC(C)(c2sc(-c3ccccc3)nc2C)C1` (stereo unspecified) as the compound, how does the Potency read?
A: inconclusive: 1.16 µM [activator, single point]

Q: For `Cc1c(C(=O)N2CCC(N3CCSCC3)CC2)oc2c(F)cccc12`, which Potency is on record?
A: inconclusive: 29.1 µM [activator, partial curve, poor fit]

Q: Which Potency does the source give for `COc1ccc(-n2nc3c(c2NC(=O)C(C)Oc2ccccc2)CS(=O)C3)cc1` (stereo unspecified) here?
A: inactive

Q: Which Potency does the source give for `C[C@@]12C(=O)N(c3cccc(Br)c3)C(=O)N1[C@H](c1ccc(Cl)cc1)[C@@H]1C(=O)N(C3CCCCC3)C(=O)[C@@H]12` here?
A: inconclusive: 4.61 µM [activator, full curve, poor fit]

Q: For `COc1ccc(OC)c(NC(=O)c2ccc(OCC(=O)N3CCOCC3)c(OC)c2)c1`, which Potency is on record?
A: inactive

Q: With `COc1ccccc1OCCCC(=O)Nc1ccc([N+](=O)[O-])cc1Br` as the compound, how does the Potency read?
A: inconclusive: 32.6 µM [activator, single point]

Q: With `NC1=C([N+](=O)[O-])C(c2ccc3c(c2)OCO3)C2=C(CCCC2=O)O1` (stereo unspecified) as the compound, how does the Potency read?
A: inconclusive: 0.0052 µM [activator, full curve, poor fit]

Q: Which Potency does the source give for `Cc1nc(N)nc(N(C)c2ccccc2)c1Br` here?
A: inconclusive: 29.1 µM [activator, single point]

Q: For `CC(C)(C)NCC(O)COc1ccccc1C(C)(C)C` (stereo unspecified), which Potency is on record?
A: inconclusive: 20.6 µM [activator, single point]

Q: Which Potency does the source give for `Cc1cccc(C(=O)Nc2cccc(C(=O)N/N=C/c3ccccn3)c2)c1` here?
A: inconclusive: 0.411 µM [activator, full curve]

Q: With `Cc1ccc(S(=O)(=O)NCC(c2ccc3c(c2)OCO3)N2CCN(c3ccccc3)CC2)cc1` (stereo unspecified) as the compound, how does the Potency read?
A: inactive

Q: With `Cc1nn(Cc2c(Cl)cccc2Cl)c(C)c1NC(=O)c1cn(-c2ccccc2)nc1-c1ccccc1` as the compound, how does the Potency read?
A: active: 8.2 µM

Q: For `Cn1c(=O)cc2c3c(c(N4CCCCC4)ccc31)C(=O)c1ccccc1-2`, which Potency is on record?
A: inconclusive: 0.517 µM [activator, partial curve, poor fit]

Q: With `COc1ccc(N2C(=O)c3cccc4cccc(c34)C2=O)cc1` as the compound, how does the Potency read?
A: active: 13 µM

Q: For `COc1ccc(CCNC(=O)c2cc(-c3cc(Cl)ccc3O)n[nH]2)cc1OC`, which Potency is on record?
A: inconclusive: 29.1 µM [activator, single point]

Q: For `COCC(C)n1c(SCC(=O)Nc2cc(C)on2)nc2ccccc2c1=O` (stereo unspecified), which Potency is on record?
A: inconclusive: 29.1 µM [activator, single point]

Q: For `CC1CCCN(CCOCCOc2ccccc2-c2ccccc2)C1` (stereo unspecified), which Potency is on record?
A: inconclusive: 16.4 µM [activator, single point]

Q: Which Potency does the source give for `COc1ccc(-c2nc(CS(=O)CC(=O)NC3CCCCC3C)c(C)o2)cc1` (stereo unspecified) here?
A: inactive

Q: For `C=CCN1CCN(C(c2ccccc2)c2nnnn2CCC(C)C)CC1` (stereo unspecified), which Potency is on record?
A: inconclusive: 29.1 µM [activator, single point]

Q: For `CCCCC(=O)Nc1nn(CC(C)C)c2nc3ccccc3cc12`, which Potency is on record?
A: inconclusive: 14.6 µM [activator, single point]

Q: For `Cc1cc(C)nc(NC(N)=NCCc2ccccc2)n1`, which Potency is on record?
A: active: 16.4 µM

Q: For `Cc1ccc(S(=O)(=O)Oc2cccc([N+](=O)[O-])c2)cc1`, which Potency is on record?
A: inconclusive: 20.6 µM [activator, partial curve, poor fit]

Q: For `CCOC(=O)N1C/C(=C\c2ccccc2)C(=O)/C(=C/c2ccccc2)C1`, which Potency is on record?
A: inconclusive: 2.31 µM [activator, full curve, poor fit]

Q: For `COc1cc(/C=N/NC(=O)C(=O)/C=C2\NC(C)(C)Cc3ccccc32)ccc1O`, which Potency is on record?
A: inconclusive: 29.1 µM [activator, single point]

Q: With `O=C(NCCN1CCOCC1)c1cc(-c2ccc(Cl)c(Cl)c2)on1` as the compound, how does the Potency read?
A: inactive

Q: With `Cc1ccc(-c2onc3ccc(C=O)cc23)cc1` as the compound, how does the Potency read?
A: inconclusive: 25.9 µM [activator, single point]

Q: For `C=CC[C@]12CCc3ccccc3C1N(c1ccc(C(=O)OCC)cc1)C2=O` (stereo partly specified), which Potency is on record?
A: inactive

Q: With `COCCNC(=O)C12CC3CC(C1)CC(c1ccccc1)(C3)C2` as the compound, how does the Potency read?
A: inactive

Q: With `ONC(=Nc1ccccc1)c1ccccc1Cl` as the compound, how does the Potency read?
A: inconclusive: 6.51 µM [activator, single point]

Q: For `O=C(NC(c1cccnc1)C(F)(F)F)c1cc(COc2ccc3c(c2)CCCC3)on1` (stereo unspecified), which Potency is on record?
A: inconclusive: 6.51 µM [activator, single point]

Q: With `COCCNC(=O)/C(C#N)=C/c1ccc(O)cc1` as the compound, how does the Potency read?
A: inactive

Q: Which Potency does the source give for `CCC1CCCCN1S(=O)(=O)c1ccc(S(=O)(=O)N2CCN(S(=O)(=O)CC)CC2)cc1` (stereo unspecified) here?
A: inconclusive: 18.4 µM [activator, single point]

Q: Which Potency does the source give for `OCc1cc(C(O)CNCCCCCCOCCCCc2ccccc2)ccc1O` (stereo unspecified) here?
A: inconclusive: 33.5 µM [activator, single point] and inconclusive: 31.6 µM [activator, partial curve, poor fit]

Q: For `COc1ccc(-c2nn(-c3ccccc3)cc2/C=N/NC(=S)NC(C)C)cc1OC`, which Potency is on record?
A: inconclusive: 16.4 µM [activator, partial curve, poor fit]

Q: For `NC(Cc1c[nH]c2ccc(OCc3ccccc3)cc12)C(=O)O` (stereo unspecified), which Potency is on record?
A: inconclusive: 23.1 µM [activator, single point]

Q: With `O=C(COC(=O)c1cc(S(=O)(=O)N2CCOCC2)ccc1F)NCc1ccc2c(c1)OCO2` as the compound, how does the Potency read?
A: inactive

Q: With `COc1ccc(COC(=O)C2=C(C)NC(=O)NC2c2cccc(Br)c2)cc1` (stereo unspecified) as the compound, how does the re-replication activation read?
A: inconclusive: 24.5% [activator]

Q: With `COc1ccc(C(=O)Nc2nc3ccc4nc(C)sc4c3s2)cc1` as the compound, how does the Potency read?
A: inactive

Q: Which Potency does the source give for `CCN1CCN(c2ccc(S(=O)(=O)N3CCCCC3)cc2NC(=O)COc2ccccc2)CC1` here?
A: inactive
